Some results were stated once for a whole list of compounds, not compound by compound. At least one compound was matched to its structure with a doubt left.
Assay: Water solubility of the solubilizers / complexing agents themselves
Settings: judged by precipitation in the water solution

## CC(C)(O)[C@@H]1CC[C@](C)([C@H]2[C@@H](O)C[C@@]3(C)[C@@H]4C[C@H](O[C@@H]5O[C@H](CO)[C@@H](O)[C@H](O)[C@H]5O)[C@H]5C(C)(C)[C@@H](O[C@@H]6OC[C@@H](O)[C@H](O)[C@H]6O)CC[C@@]56C[C@@]46CC[C@]23C)O1 [Astragaloside IV, astragaloside IV]
  Content of solubilizer in the nominal 10% w/v water solution: less than 10%

## C=C1C[C@@]23CC[C@H]4[C@@](C)(CCC[C@@]4(C)C(=O)O)[C@@H]2CC[C@]1(O[C@@H]1O[C@H](CO)[C@@H](O)[C@H](O)[C@H]1O)C3 [steviol monoside]
  Content of solubilizer in the nominal 10% w/v water solution: less than 10%
